Values from PubChem BioAssay AID1508587 (Peter MacCallum Cancer Centre, 2020)
This is one part, drawn at random, of about 1,600 reagents. Of all reagents, 623 (39%) got an active call. 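Calls are for each duplex; lactate ratios contain extreme outliers.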 Unmarked entries are inactive. The numbers tell different reagents against one gene apart. Not all columns of the deposit are shown.

Aim: 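Knockdowns that add to vemurafenib's cut in melanoma glycolysis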 (follow-up of hits)
Cell system: human WM266.4 melanoma cells with a BRAF V600 mutation
Reagents: single siRNA against human genes, 25 nM
Time to read-out: 96 h
Treatment: vemurafenib 300 nM (about IC25), given 48 h after transfection for 48 h
Read-out: 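Medium lactate read by absorbance over DAPI-counted nuclei; ratio with versus without vemurafenib, set against non-targeting siRNA, averaged over 2 replicates; cell number also recorded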
Scale: lactate per cell, drug vs no drug: higher = less drug-induced drop in lactate per cell
Active means: 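a duplex is active when its lactate-per-cell ratio with versus without drug falls under 0.55, i.e. 2 SD below non-targeting; a gene is confirmed if 2 or more of 4 duplexes pass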

lactate per cell, drug vs no drug, by gene symbol and reagent
SYNGAP1: #1 0.48 (active); #2 0.6; #3 0.6; #4 0.44 (active)
EPC2: #1 0.54 (active); #2 0.16 (active); #3 0.6; #4 0.52 (active)
PDCD6IP: #1 0.68; #2 0.48 (active); #3 0.42 (active); #4 0.84
ZNF271P: #1 0.78; #2 0.62; #3 0.4 (active); #4 0.66
LZTS3: #1 0.93; #2 0.68; #3 0.68; #4 0.72
EMP3: #1 0.77; #2 0.7; #3 0.78; #4 0.86
SFXN3: #1 0.37 (active); #2 0.66; #3 0.5 (active); #4 0.58
MACROH2A1: #1 0.68; #2 0.43 (active); #3 0.75; #4 0.73
PPIL3: #1 0.81; #2 0.76; #3 0.86; #4 0.53 (active)

Entries above whose gene name starts with Z or z:
lactate per cell, drug vs no drug, by gene symbol and reagent
ZNF271P: #1 0.78; #2 0.62; #3 0.4 (active); #4 0.66
